Results are given in words; binding and its absence hold for the method and conditions named. Binding seen in cells or lysates may run through a third protein. Some results given as binding are weak or reduced against the parent protein; the word gives no strength.

Amino acid sequences for entries named in this document (tags omitted).
UniProt P51449: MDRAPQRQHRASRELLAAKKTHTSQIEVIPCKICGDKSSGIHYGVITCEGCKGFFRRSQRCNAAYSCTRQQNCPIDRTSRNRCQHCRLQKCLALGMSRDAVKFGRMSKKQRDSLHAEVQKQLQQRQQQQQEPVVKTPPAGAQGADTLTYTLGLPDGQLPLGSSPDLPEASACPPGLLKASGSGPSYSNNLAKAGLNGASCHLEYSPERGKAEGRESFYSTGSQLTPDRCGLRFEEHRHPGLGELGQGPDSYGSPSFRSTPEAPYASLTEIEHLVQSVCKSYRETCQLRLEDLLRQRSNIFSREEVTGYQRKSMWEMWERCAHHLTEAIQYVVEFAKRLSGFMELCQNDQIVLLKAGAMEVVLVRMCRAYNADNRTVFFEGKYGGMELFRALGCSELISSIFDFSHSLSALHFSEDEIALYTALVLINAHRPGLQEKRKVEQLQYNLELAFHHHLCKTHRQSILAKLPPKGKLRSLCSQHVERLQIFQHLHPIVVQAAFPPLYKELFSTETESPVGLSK
UniProt Q13547: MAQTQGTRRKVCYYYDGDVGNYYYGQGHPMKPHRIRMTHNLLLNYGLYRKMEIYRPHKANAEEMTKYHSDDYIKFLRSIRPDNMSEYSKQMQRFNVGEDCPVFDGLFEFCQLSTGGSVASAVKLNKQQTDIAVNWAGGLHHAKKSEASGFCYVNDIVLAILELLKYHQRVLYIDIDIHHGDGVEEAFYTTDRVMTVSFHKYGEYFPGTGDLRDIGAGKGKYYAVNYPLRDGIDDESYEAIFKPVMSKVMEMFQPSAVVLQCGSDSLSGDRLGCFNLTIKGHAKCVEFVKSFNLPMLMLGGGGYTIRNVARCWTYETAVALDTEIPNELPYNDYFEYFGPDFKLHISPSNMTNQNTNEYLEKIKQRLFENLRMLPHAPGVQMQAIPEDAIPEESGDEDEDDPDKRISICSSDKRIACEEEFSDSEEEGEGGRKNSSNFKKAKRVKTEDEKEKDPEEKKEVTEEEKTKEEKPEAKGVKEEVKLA
UniProt Q92793: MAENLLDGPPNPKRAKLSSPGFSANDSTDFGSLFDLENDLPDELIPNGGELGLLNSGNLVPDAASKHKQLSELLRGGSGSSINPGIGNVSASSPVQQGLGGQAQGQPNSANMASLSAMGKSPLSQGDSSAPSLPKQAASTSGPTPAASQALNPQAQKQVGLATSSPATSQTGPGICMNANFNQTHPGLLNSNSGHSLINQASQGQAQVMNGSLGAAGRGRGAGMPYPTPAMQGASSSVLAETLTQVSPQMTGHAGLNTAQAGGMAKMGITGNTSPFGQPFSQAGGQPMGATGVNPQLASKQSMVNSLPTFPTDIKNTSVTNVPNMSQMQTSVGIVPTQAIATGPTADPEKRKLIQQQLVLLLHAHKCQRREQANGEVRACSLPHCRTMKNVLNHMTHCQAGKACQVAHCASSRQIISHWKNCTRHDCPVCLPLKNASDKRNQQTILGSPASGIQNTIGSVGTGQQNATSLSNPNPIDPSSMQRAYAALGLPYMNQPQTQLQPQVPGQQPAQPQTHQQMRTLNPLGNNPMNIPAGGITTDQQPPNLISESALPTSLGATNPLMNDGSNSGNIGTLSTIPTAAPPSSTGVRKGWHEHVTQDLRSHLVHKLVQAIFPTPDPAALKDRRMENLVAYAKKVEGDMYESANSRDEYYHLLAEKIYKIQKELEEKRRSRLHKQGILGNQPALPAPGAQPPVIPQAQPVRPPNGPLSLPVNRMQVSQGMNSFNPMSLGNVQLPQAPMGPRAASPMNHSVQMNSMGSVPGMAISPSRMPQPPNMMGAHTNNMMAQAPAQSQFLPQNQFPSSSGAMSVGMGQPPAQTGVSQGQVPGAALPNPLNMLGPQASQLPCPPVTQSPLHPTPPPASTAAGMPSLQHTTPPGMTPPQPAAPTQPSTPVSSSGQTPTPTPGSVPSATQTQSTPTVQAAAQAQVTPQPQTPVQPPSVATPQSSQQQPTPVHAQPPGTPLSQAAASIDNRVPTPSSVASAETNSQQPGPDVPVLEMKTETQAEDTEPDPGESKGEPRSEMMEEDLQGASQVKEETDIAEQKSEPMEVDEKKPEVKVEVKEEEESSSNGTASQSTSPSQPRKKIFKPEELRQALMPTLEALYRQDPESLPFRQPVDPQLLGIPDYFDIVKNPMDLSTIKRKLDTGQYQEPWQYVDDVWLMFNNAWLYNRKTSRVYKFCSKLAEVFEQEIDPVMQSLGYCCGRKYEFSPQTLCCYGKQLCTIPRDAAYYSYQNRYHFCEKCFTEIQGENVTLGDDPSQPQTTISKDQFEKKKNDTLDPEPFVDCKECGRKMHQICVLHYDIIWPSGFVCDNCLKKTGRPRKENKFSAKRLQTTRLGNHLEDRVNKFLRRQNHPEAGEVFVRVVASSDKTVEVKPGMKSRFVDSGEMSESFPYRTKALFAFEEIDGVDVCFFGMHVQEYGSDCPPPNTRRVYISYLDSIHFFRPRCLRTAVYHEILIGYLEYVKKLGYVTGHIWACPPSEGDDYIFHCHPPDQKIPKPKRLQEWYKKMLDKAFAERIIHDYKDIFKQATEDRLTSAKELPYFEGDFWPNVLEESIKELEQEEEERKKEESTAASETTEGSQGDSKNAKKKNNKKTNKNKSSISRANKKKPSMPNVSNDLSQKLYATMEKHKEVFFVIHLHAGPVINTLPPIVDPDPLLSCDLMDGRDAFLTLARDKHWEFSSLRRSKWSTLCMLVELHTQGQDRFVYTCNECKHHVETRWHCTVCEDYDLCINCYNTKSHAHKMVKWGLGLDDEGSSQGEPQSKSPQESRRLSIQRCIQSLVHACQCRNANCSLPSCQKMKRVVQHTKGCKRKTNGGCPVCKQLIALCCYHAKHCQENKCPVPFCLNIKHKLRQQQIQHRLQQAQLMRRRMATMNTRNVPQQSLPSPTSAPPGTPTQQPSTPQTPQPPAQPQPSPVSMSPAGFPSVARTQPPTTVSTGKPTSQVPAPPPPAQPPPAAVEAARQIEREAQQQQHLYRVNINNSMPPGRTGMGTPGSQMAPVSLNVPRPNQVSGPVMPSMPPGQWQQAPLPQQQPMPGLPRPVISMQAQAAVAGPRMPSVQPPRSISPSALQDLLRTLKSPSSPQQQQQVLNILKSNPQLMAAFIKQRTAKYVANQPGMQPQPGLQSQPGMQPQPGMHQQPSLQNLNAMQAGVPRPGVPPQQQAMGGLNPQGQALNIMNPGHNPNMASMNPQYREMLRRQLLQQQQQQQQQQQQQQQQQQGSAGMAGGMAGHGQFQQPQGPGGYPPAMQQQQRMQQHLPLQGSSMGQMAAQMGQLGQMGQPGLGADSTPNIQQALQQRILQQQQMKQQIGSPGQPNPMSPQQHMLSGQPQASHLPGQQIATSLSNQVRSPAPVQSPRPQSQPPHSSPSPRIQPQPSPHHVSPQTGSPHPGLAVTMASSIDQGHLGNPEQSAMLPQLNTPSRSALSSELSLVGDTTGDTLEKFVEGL
UniProt Q09472: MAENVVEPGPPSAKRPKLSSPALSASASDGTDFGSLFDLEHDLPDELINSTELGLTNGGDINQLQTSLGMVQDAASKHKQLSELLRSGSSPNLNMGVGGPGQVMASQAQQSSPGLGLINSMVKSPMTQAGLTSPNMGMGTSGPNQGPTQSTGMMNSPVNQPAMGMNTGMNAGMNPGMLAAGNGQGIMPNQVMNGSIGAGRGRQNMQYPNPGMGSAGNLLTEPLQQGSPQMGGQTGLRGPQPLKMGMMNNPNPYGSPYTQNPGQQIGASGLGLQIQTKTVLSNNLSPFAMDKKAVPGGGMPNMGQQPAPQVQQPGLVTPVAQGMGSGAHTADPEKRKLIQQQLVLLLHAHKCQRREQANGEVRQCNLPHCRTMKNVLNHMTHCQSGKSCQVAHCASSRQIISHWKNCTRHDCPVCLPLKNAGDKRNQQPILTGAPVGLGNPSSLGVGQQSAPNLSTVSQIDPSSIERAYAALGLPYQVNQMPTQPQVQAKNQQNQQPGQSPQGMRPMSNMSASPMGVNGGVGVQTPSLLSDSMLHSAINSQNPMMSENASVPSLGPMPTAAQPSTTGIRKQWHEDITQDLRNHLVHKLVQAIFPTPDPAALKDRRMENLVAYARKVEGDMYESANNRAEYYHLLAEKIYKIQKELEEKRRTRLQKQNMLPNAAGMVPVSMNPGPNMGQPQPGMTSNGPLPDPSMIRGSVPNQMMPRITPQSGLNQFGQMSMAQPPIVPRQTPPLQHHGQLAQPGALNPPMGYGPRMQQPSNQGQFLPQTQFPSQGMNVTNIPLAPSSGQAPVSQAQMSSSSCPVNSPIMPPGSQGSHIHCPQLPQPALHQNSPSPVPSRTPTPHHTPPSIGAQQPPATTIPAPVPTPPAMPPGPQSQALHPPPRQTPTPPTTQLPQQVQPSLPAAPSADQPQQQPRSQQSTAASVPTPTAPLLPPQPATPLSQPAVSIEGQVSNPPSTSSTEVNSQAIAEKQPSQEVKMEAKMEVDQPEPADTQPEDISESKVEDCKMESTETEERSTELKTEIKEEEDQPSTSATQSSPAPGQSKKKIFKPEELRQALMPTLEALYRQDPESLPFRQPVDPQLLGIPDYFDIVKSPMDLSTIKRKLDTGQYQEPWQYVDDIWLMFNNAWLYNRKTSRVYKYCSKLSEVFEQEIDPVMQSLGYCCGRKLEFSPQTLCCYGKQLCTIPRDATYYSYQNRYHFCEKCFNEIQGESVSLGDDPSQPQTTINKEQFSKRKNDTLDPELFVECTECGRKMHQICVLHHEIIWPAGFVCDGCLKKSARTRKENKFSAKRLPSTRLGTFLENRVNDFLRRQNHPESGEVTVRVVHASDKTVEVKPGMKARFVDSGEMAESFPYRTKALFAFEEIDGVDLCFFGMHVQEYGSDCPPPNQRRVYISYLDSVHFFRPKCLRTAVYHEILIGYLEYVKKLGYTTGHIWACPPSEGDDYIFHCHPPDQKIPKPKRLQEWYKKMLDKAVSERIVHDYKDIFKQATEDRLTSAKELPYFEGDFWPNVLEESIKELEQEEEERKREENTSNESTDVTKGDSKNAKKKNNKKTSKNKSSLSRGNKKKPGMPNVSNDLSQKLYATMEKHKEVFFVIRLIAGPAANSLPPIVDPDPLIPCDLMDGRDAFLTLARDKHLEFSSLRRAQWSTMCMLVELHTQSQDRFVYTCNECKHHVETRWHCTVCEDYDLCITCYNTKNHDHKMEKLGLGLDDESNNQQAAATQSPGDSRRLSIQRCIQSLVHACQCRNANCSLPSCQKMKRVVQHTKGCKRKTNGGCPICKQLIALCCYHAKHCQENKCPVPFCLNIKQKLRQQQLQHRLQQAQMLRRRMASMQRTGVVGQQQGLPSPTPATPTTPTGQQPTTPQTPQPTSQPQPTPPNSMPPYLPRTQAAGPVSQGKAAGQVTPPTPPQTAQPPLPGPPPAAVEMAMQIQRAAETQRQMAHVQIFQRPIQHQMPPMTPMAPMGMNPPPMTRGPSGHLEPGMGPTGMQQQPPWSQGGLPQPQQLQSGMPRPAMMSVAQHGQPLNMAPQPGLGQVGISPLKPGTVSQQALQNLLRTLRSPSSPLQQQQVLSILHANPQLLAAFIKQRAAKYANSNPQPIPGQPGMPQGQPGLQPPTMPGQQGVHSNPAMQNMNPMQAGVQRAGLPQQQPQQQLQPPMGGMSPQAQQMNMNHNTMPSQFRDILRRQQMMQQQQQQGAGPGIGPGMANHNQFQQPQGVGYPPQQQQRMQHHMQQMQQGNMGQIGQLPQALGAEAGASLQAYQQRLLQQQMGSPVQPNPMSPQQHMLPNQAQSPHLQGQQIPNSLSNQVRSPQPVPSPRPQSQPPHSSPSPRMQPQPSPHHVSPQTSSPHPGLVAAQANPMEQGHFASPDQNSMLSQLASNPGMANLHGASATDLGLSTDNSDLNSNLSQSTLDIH

The target of assay [1] is Myc-tagged RORC (UniProt P51449). The assay is described as follows: co-IP; anti-Myc antibody on NK-92 cells transfected with Myc-tagged RORC, HA-tagged p300 and Flag-tagged HDACs or SIRTs; immunoblotting. (In general: In western blotting, separated proteins are transferred to a membrane and probed.)
Assay [2] shares this target. The assay can be described thus: co-IP; anti-Myc antibody on NK-92 cells transfected with Myc-tagged RORC and HA-tagged acetyltransferases; immunoblotting.

For the substance “Flag-tagged HDAC1 (from UniProt Q13547 1-482) (enzyme)”, the binding result with Myc-tagged RORC [1] is recorded as “binds”.

With “HA-tagged CBP (from UniProt Q92793 1-2442) (enzyme)”, in the assay with Myc-tagged RORC [2], the binding entry is “binds”.

For the substance “HA-tagged p300 (from UniProt Q09472 1-2414) (enzyme)”, the binding result with Myc-tagged RORC [2] is recorded as “binds”.
